Measured values reported in article PMC11530130, “Peripherally restricted PICK1 inhibitor mPD5 ameliorates pain behaviors in murine inflammatory and neuropathic pain models” (JCI Insight, 2024).
“And” between values parts separate entries of the source, which are not always exact repeats. Identical values can stand only once. Further values from the same series stand in other lists.

How the values were obtained:
naive mice = experiment: Barnes maze (spatial learning and memory, reversal learning); type: in vivo, mouse; conditions: individual animals;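 also: Nose pokes per hole during a probe trial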
Description: Spatial learning and memory.
On each day, animals were moved from the housing facility to the experimental room and allowed to acclimatize for at least 60 min before initiation of the experiment. All drugs used (PBS or 10 μmol/kg mPD5) were injected s.c. in a 10 μl/g body weight volume 60 min before first placement on the Barnes’ maze on day 1-9 of the experiment. The experiment was divided into Barnes maze habituation, spatial acquisition (training) and probe trials. During habituation to the Barnes maze itself, animals were placed under a cylinder in the middle of the Barnes maze for 10 seconds and then gently guided to the escape box and left there for two min. During spatial acquisition (training), each mouse was placed under a cylinder in the middle of the Barnes maze for 10 sec followed by up to three min of free exploration of the Barnes maze.
Once the animal entered the escape cage, it was left there for one min before being transferred back to its home cage for 15-20 min. This training was performed four times per day per mouse.
During probe trials the reference memory of the animal was tested by placing each mouse under a cylinder in the middle of the Barnes maze for 10 sec followed by 90 sec of free exploration of the Barnes maze with no escape cage. On days 6-8, the escape hole was moved 90 degrees, and all mice went through the second bout of training. On day nine, a second probe trial was performed testing the reversal learning of the mice. […]
Single exposure place preference. […]

[1] = test system: mice, CFA model of inflammatory pain; experiment: CFA model of inflammatory pain, von Frey, i.t. administration; type: in vivo, mouse; conditions: CFA day 2, i.t. 20 μM, 7 μL, listed as myr
Description: Unless otherwise specified, wild type C57BL/6NRj mice (male and female, aged eight-weeks at the beginning of experiment) were used (Janvier, France). Animals were allowed at least seven days of habituation to the animal facility before initiation of experiment. Mice were group-housed in a temperature-controlled room, maintained on a 12/12hour light/dark cycle (lights on at 6 A.M) with free access to standard rodent chow (Altromin 1342 (Brogaarden, […]
Drug administration and dosing for animal experiments.
All compounds were diluted in PBS or saline (depending on control) and administered through different routes i.t. (7 μL/mouse)), i.p. (10 μL/g) or s.c. (10 μL/g)) as indicated. Doses of mPD5 were based on previous studies with TPD5 (6) with a subcutaneous dose-range included in the CFA studies further guiding dose selection for SNI, STZ and CIBP studies. Pregabalin dose was chosen based on previous experience from Phenotype Expertise (Marseilles, France). In the CIBP model, a dose of […] morphine was chosen to avoid hyperactivity, though known to provide only partial pain relief in this model. In remaining experiments, 5 mg/kg morphine was chosen, known to provide full pain relief, except for the conditioned place preference experiment, where 10 mg/kg was used instead in accordance with literature.
C57BL/6 mice were injected s.c. with 10 umol/kg of mPD5 conjugated to Vivotag645 (WuXi, China) or PBS one hour prior to transcardial perfusion with PBS followed by 4% PFA (n=3).
The spinal columns and the brains were dissected and post fixated in 4% PFA overnight at 4 °C. Next, the samples were washed in PBS with 0.02% sodium azide and cleared with a protocol combining elements from PEGASOS (7) and iDISCO (8) which obtained sufficient transparency while still keeping the Vivotag645 fluorophore intact. For the spinal columns, bone was decalcified with 20% EDTA tetrasodium salt (Sigma-Aldrich) in demineralized water for 4 days at 37 °C. Both spinal columns and brains were gently bleached with 25% Quadrol (Sigma-Aldrich) in demineralized water at 37 °C for 3 days followed by 5% ammonium (VWR, Denmark) in demineralized water for one day at 37 °C. Next, the samples were dehydrated in a dilution series of methanol (VWR, Denmark) in demineralized water (20%, 40%, 60%, 80%, 100%, and 100%) with 1.5 hours in each methanol concentration. The samples were delipidated overnight in a solution containing 2/3 dichloromethane (Sigma-Aldrich) and 1/3 methanol. The samples were washed two times in dichloromethane before index matching with ethyl cinnamate (Sigma-Aldrich). The spinal columns were imaged on a 3i Cleared Tissue LightSheet microscope with Slidebook software (3i). The Slidebook software was furthermore used to stitch the images. High resolution light sheet of the dorsal root ganglions (DRGs) and the imaging of the brains were performed with the Zeiss Lightsheet 7 with Zeiss Zen Black software. A custom Python script was used to stitch the imaged brains. After stitching visualization was optimized in Imaris software (Imaris Oxford instruments).
Immunocytochemistry on primary dorsal root ganglion (DRG) neurons
DRG cell cultures were prepared from adult C57BL/6 mice from Janvier. After transcardial perfusion with PBS, approximately 35 DRGs from one mouse were dissected and placed in ice cold Ham’s F12 medium (Gibco). The tissue was incubated in enzyme mix (3 mL of 3 mg/mL dispase II from Sigma Aldrich and 200 µl of 12.5 mg/mL clostridium histolyticum collagenase from Sigma Aldrich) for one hour at 37 °C. The enzyme mix was removed and warm Ham’s F12 medium was added. The cells were mechanically separated with serial trituration using fire-polished glass pipettes until the tissue was dissolved. The cells were passed through a 70 […]
K2 tubes at 5 min, 30 min, 1 hour, 5 hours, 12 hours, 24 hours, and 48 hours and centrifuged (app 4 ℃, 3200 g, 10 min) for collection of plasma. Plasma was transferred to 96 well plates and quick-frozen over dry ice and kept at -60 ℃ until LC-MS/MS analysis. […]

In the case of `CCCCCCCCCCCCCC(=O)N(CCOCCOCCC(=O)N[C@@H](Cc1c[nH]cn1)C(=O)N[C@@H](Cc1c[nH]c2ccccc12)C(=O)N[C@@H](CC(C)C)C(=O)N[C@@H](CCCCN)C(=O)N[C@H](C(=O)O)C(C)C)CCOCCOCCC(=O)N[C@@H](Cc1c[nH]cn1)C(=O)N[C@@H](Cc1c[nH]c2ccccc12)C(=O)N[C@@H](CC(C)C)C(=O)N[C@@H](CCCCN)C(=O)N[C@H](C(=O)O)C(C)C` [mPD5, myristoyl-NPEG4-(HWLKV)2], the “Barnes maze, count per hole (Fig S8D)” value (naive mice; hole position 5) is reported as 0 (4×) and 2 (2×) and 1 (3×), the “Barnes maze, count per hole (Fig S8E)” value (naive mice; hole position 5) is reported as 0 (2×) and 3 and 1 (5×) and 2 and the “Barnes maze, count per hole (Fig S8D)” value (naive mice; hole position 6) is reported as 0 (4×) and 2 and 1 (4×). For the same molecule, the “Barnes maze, count per hole (Fig S8E)” value (naive mice; hole position 6) was 0 (3×) and 1 (4×) and 2 and 3, the “Barnes maze, count per hole (Fig S8D)” value (naive mice; hole position 7) was 0 (4×) and 2 (2×) and 1 (3×) and the “Barnes maze, count per hole (Fig S8E)” value (naive mice; hole position 7) was 1 (2×) and 2 (7×). The “Barnes maze, count per hole (Fig S8D)” value (naive mice; hole position 8) was 0 (3×) and 1 (6×), the “Barnes maze, count per hole (Fig S8E)” value (naive mice; hole position 8) was 1 (5×) and 2 (3×) and 3 and the “Barnes maze, count per hole (Fig S8D)” value (naive mice; hole position 9) was 0 (3×) and 2 and 1 (5×). The “Barnes maze, count per hole (Fig S8E)” value (naive mice; hole position 9) was 1 (3×) and 2 (4×) and 0 and 3, the “Barnes maze, count per hole (Fig S8D)” value (naive mice; hole position -7) was 1 (3×) and 2 and the “Barnes maze, count per hole (Fig S8E)” value (naive mice; hole position -7) was 1 (2×) and 2 (3×) and 3. For the same molecule, the “Barnes maze, count per hole (Fig S8D)” value (naive mice; hole position -8) was 0 (5×) and 1 (3×) and 2, the “Barnes maze, count per hole (Fig S8E)” value (naive mice; hole position -8) was 0 (2×) and 1 (3×) and 2 (3×) and 3 and the “Barnes maze, count per hole (Fig S8D)” value (naive mice; hole position -9) was 0 (5×) and 1 (3×) and 3. For the same molecule, the “Barnes maze, count per hole (Fig S8E)” value (naive mice; hole position -9) was 1 (4×) and 0 and 2 (3×) and 3, the “Barnes maze, count per hole (Fig S8D)” value (naive mice; hole position opposite) was 0 (4×) and 1 (5×) and the “Barnes maze, count per hole (Fig S8E)” value (naive mice; hole position opposite) was 1 (4×) and 0 and 2 (3×) and 3. The “paw withdrawal threshold (von Frey), individual mice” value (“paw withdrawal threshold (von Frey)” below) ([1]; contralateral paw, 1 hr post drug adm.) was 1.4 (5×) and 2, the “paw withdrawal threshold (von Frey)” value ([1]; contralateral paw, 5 hrs post drug adm.) was 1.4 (2×) and 1 (2×) and 2 (2×) and the “paw withdrawal threshold (von Frey)” value ([1]; contralateral paw, 24 hrs post drug adm.) was 1 (2×) and 2 (3×) and 1.4. The “paw withdrawal threshold (von Frey)” value ([1]; ipsilateral paw, 1 hr post drug adm.) was 0.6 and 0.16 and 2 (2×) and 0.4 and 1, the “paw withdrawal threshold (von Frey)” value ([1]; ipsilateral paw, 5 hrs post drug adm.) was 0.16 (3×) and 2 and 1 and 1.4 and the “paw withdrawal threshold (von Frey)” value ([1]; ipsilateral paw, 24 hrs post drug adm.) was 0.16 (4×) and 0.4 (2×).
